# The supplement of paper PMC10849652
# Sequences of proteins named here, by UniProt entry; tags and fusion partners are left off. A change or cut given only in a name is not applied to a line headed by its entry.
# UniProt Q9P031: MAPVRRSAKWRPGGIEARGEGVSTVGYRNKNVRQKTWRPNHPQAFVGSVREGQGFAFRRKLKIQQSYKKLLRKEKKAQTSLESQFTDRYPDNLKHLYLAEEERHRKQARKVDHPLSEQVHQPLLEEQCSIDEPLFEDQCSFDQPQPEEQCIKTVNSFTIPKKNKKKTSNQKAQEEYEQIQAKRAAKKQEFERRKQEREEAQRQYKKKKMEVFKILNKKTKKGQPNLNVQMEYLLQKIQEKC
# UniProt Q92526, whole entry, looked up: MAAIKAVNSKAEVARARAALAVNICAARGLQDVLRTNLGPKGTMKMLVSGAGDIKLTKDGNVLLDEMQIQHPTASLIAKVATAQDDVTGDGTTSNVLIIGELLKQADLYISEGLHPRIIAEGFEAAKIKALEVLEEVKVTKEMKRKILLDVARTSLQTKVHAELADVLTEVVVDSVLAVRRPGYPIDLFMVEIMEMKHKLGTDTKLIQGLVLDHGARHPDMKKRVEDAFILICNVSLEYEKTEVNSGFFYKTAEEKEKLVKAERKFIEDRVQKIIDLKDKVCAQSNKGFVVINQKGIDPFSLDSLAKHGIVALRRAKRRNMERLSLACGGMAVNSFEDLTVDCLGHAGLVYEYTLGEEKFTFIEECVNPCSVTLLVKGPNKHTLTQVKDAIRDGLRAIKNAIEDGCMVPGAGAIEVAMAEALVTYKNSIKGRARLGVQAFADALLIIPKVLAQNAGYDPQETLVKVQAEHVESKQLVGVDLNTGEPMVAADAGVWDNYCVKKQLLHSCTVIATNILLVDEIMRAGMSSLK
# UniProt Q07108: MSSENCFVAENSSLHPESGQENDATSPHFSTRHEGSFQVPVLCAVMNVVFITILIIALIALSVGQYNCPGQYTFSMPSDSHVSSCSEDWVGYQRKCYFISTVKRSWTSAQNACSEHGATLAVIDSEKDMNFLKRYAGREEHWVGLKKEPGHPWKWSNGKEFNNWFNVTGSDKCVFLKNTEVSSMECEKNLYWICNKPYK
# UniProt O60563, whole entry, looked up: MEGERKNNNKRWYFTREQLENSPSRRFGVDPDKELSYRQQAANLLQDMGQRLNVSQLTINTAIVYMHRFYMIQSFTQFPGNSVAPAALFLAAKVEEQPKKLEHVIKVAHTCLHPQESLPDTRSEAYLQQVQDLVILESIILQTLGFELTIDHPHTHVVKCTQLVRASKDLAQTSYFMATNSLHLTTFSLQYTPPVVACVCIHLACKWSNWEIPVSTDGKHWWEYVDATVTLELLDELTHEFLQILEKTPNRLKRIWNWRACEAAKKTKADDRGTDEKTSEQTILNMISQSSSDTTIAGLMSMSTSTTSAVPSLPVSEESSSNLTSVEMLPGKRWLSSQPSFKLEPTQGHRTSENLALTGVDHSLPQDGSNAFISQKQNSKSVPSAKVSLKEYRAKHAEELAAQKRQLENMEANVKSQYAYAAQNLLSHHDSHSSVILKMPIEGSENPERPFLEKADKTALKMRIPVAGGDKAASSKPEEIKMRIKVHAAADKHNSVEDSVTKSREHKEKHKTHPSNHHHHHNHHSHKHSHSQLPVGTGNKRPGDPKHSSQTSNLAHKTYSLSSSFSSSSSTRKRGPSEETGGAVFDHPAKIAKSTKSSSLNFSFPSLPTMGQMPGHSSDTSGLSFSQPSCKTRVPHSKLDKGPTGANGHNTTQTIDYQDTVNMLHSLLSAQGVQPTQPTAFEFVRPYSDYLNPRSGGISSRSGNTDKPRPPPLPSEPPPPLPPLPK
# UniProt P51636: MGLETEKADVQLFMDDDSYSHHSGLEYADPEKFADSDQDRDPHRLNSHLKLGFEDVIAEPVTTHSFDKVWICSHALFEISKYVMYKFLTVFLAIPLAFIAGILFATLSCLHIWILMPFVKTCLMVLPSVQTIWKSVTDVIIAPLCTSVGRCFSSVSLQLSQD
# UniProt Q8IWY9: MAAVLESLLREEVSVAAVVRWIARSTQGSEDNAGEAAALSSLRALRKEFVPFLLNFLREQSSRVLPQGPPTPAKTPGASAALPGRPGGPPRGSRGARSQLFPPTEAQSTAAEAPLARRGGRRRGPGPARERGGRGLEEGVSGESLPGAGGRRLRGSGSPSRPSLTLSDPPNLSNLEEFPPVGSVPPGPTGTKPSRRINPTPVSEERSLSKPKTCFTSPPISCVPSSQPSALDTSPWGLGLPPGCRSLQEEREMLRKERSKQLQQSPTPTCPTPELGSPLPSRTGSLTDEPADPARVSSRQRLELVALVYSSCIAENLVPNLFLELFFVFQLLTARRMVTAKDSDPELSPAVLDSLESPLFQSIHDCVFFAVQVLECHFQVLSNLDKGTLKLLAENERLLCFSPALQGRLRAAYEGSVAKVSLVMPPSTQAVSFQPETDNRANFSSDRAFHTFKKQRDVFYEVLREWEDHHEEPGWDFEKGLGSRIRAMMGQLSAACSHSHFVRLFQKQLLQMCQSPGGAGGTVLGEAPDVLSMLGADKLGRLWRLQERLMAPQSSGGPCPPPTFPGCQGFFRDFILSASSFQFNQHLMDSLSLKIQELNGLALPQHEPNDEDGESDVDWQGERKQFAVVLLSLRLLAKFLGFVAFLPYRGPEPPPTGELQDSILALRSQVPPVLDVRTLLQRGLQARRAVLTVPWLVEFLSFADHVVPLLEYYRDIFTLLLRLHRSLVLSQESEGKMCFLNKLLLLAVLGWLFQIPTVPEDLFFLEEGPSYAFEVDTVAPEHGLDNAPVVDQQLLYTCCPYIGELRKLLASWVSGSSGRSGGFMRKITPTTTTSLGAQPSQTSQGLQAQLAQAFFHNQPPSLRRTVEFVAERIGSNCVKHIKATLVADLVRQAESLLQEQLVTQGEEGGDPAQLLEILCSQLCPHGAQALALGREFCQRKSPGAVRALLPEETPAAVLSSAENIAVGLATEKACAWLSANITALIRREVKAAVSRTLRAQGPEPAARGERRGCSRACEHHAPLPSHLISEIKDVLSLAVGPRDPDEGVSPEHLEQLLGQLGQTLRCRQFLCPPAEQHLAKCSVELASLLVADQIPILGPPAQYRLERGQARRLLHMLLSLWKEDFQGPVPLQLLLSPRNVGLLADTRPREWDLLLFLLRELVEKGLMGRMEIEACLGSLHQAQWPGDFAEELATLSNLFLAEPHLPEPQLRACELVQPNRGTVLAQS
# UniProt Q2TAC2: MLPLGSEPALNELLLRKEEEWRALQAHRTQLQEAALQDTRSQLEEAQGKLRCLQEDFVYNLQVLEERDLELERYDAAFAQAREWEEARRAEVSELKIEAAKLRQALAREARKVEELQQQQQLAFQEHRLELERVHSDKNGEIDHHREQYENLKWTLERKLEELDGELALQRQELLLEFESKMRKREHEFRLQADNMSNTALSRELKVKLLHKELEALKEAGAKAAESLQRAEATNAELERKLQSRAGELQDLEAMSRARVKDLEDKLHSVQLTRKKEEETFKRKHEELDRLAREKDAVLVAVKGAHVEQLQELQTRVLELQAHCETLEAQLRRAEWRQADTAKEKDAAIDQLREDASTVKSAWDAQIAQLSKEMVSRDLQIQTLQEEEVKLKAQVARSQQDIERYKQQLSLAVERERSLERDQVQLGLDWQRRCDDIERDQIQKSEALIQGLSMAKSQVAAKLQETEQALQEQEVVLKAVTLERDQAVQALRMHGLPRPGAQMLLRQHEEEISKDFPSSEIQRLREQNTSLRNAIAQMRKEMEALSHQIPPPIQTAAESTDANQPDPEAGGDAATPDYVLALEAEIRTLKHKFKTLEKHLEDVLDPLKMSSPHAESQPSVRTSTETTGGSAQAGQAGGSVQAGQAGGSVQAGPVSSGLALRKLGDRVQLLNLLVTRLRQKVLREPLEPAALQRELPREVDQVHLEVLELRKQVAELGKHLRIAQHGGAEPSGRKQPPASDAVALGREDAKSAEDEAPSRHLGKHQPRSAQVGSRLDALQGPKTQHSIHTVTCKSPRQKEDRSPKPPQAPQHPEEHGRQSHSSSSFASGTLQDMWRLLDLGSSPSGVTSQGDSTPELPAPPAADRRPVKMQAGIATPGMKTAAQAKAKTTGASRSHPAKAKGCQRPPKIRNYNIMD
# UniProt Q92851: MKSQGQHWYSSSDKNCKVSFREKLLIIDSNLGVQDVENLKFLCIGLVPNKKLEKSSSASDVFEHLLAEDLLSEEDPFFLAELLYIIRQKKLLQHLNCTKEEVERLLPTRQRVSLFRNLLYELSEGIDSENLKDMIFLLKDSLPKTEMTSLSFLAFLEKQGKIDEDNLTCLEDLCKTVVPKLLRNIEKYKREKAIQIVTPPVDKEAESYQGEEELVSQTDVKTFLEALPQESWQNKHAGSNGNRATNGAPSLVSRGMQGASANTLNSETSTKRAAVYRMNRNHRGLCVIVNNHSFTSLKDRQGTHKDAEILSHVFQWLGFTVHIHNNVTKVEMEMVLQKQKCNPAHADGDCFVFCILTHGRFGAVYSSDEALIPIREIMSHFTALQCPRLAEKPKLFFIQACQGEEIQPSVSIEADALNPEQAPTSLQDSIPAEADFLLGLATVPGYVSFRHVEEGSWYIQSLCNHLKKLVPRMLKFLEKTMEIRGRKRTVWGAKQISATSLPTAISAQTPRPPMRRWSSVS
# UniProt P19397: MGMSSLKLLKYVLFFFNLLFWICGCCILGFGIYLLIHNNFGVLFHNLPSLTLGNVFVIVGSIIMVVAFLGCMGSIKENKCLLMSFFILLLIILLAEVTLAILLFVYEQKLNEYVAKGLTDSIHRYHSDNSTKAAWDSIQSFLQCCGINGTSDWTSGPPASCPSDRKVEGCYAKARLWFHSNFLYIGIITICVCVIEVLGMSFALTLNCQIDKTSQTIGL
# UniProt P24863: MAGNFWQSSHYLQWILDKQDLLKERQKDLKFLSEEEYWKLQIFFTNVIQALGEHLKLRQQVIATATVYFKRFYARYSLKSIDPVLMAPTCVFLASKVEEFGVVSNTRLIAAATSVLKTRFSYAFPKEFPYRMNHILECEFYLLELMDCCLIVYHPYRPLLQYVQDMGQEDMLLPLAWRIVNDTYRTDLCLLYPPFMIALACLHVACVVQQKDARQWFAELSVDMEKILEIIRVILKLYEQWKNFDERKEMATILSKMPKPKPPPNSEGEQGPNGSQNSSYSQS
# UniProt Q75N03: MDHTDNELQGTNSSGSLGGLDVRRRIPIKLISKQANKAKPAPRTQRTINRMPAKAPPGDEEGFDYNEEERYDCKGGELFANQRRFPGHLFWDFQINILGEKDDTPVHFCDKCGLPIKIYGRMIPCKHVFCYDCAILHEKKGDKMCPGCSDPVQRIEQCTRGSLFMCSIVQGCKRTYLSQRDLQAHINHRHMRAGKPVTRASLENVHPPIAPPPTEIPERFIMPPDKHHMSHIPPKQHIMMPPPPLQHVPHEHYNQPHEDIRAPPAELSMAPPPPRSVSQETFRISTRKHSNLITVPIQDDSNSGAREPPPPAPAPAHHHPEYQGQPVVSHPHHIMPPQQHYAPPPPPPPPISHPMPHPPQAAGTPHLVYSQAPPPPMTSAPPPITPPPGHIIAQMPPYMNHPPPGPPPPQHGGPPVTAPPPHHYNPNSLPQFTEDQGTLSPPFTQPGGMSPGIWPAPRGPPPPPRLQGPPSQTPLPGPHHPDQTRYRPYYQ
# UniProt O75794: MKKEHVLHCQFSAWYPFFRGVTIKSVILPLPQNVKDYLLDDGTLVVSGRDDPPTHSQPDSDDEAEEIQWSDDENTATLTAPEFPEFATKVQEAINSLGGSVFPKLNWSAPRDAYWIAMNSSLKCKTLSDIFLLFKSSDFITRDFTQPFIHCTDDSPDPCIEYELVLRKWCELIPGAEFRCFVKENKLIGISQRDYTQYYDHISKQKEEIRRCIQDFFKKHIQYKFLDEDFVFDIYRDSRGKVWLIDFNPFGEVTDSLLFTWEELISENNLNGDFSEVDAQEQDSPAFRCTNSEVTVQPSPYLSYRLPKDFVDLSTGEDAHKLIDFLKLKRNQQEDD
# UniProt Q6NZI2: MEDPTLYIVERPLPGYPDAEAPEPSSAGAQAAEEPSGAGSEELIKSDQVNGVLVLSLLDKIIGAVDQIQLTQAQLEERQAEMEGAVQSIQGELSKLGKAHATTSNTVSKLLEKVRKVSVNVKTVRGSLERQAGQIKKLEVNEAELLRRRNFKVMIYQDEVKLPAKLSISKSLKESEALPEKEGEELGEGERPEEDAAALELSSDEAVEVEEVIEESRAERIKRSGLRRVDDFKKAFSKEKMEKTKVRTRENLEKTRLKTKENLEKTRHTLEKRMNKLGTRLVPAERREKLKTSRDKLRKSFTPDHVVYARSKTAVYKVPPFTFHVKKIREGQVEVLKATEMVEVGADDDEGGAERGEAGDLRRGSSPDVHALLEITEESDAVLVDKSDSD
# UniProt P08962, whole entry, looked up: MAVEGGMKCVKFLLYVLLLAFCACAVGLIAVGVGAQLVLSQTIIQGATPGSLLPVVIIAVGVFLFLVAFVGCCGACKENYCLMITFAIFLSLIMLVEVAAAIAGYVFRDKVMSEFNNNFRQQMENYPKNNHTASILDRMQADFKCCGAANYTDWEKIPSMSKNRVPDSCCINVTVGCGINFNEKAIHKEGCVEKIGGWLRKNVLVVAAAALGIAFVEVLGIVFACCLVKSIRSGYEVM
# UniProt Q9P0B6: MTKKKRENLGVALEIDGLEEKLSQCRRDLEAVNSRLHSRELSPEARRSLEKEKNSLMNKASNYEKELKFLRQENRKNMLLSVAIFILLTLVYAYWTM
# The list shows a part of the results.
# What was measured:
# Test in all cases: log2 fold change, soluble protein after heating vs DMSO (PISA); higher = thermal stabilisation; K562 cells, 10 uM, 30 min; active = over 0.2 and 3.5 SD of the protein, either way, in both replicates (recomputed)
# [1] = compound: CS(=O)(=O)c1ccc(-c2cnc(N)c(C(=O)Nc3ccccc3)n2)cc1
# Outline: (§1)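 K562 cells (2×10^6 cells/mL) were treated with 10 μM compound for 30 min, and aliquots were heated for 3 min over 48°C-58°C. Pooled aliquots were extracted in PBS with 0.5% NP-40 at 4°C, and the supernatant after 21,000xg for 90 min was measured by TMTpro 16plex LC-MS/MS with channel sums equalised. Reported thermal stability, relative to control samples and from duplicates, is a log2 fold change.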
# crizotinib = compound: C[C@@H](Oc1cc(-c2cnn(C3CCNCC3)c2)cnc1N)c1c(Cl)ccc(F)c1Cl [crizotinib]
# Outline: as §1
# [2] = compound: C[C@@H]1COCCN1C2=NC(=NC(=C2)C3(CC3)S(=O)(=O)C)C4=C5C=CNC5=CC=C4
# Outline: as §1
# [3] = compound: C[C@H](C1=CC=C(C=C1)C(=O)NC2=C3C=CNC3=NC=C2)N
# Outline: as §1
# gandotinib = compound: Cc1cc(Nc2cc(CN3CCOCC3)c3nc(C)c(Cc4ccc(Cl)cc4F)n3n2)n[nH]1 [gandotinib]
# Outline: as §1
# [4] = compound: Cc1cc(SCc2sc(-c3ccc(C(F)(F)F)cc3)nc2C)ccc1OCC(=O)O
# Outline: as §1
# doramapimod = compound: Cc1ccc(-n2nc(C(C)(C)C)cc2NC(=O)Nc2ccc(OCCN3CCOCC3)c3ccccc23)cc1 [doramapimod]
# Outline: as §1
# ispinesib = compound: Cc1ccc(C(=O)N(CCCN)[C@@H](c2nc3cc(Cl)ccc3c(=O)n2Cc2ccccc2)C(C)C)cc1 [ispinesib]
# Outline: as §1
# duvelisib = compound: C[C@H](Nc1ncnc2nc[nH]c12)c1cc2cccc(Cl)c2c(=O)n1-c1ccccc1 [duvelisib]
# Outline: as §1
# tozasertib = compound: Cc1cc(Nc2cc(N3CCN(C)CC3)nc(Sc3ccc(NC(=O)C4CC4)cc3)n2)n[nH]1 [tozasertib]
# Outline: as §1
Target,log2 fold change [1],log2 fold change (crizotinib),log2 fold change [2],log2 fold change [3],log2 fold change (gandotinib),log2 fold change [4],log2 fold change (doramapimod),log2 fold change (ispinesib),log2 fold change (duvelisib),log2 fold change (tozasertib)
CCDC59 (UniProt Q9P031),inactive: 0.09,inactive: -0.084,inactive: 0,inactive: 0.389,inactive: 0.186,inactive: 0.006,inactive: 0.164,inactive: -0.136,,
CBS (UniProt P35520),inactive: -0.024,inactive: 0.044,inactive: 0.023,inactive: -0.054,inactive: -0.033,inactive: -0.031,inactive: -0.076,inactive: -0.019,,
CCT6B isoform 3 (UniProt Q92526),inactive: 0.235,inactive: 0.055,,inactive: 0.076,,inactive: -0.043,inactive: -0.062,,inactive: 0.194,inactive: -0.23
CD69 (UniProt Q07108),inactive: -0.015,inactive: -0.036,inactive: -0.13,inactive: 0.373,inactive: -0.035,,inactive: -0.188,,,
CCDC9 (UniProt Q9Y3X0),inactive: -0.046,inactive: 0.016,inactive: -0.063,inactive: 0.105,inactive: 0.194,inactive: -0.012,inactive: -0.008,inactive: -0.215,,
CCNT1 (UniProt O60563),inactive: -0.124,inactive: -0.088,inactive: -0.098,inactive: 0.13,inactive: -0.1,inactive: 0.076,inactive: 0.181,inactive: -0.277,,
CASTOR2 (UniProt A6NHX0),inactive: -0.053,inactive: 0.045,inactive: 0.088,inactive: -0.022,inactive: -0.018,inactive: 0.008,inactive: 0.037,inactive: 0.018,,
CAV2 (UniProt P51636),inactive: -0.067,inactive: -0.087,,,inactive: 0.043,inactive: 0.035,inactive: 0.13,,,
CCNB1 (UniProt P14635),inactive: -0.002,inactive: -0.021,inactive: -0.044,inactive: -0.024,inactive: -0.004,inactive: -0.025,inactive: -0.011,inactive: 0.043,,
CDAN1 (UniProt Q8IWY9),inactive: 0.058,inactive: 0.024,inactive: 0.175,inactive: 0.066,inactive: -0.054,inactive: 0.008,inactive: 0.034,inactive: -0.02,,
CCAR1 (UniProt Q8IX12),inactive: 0.004,inactive: -0.238,inactive: 0.034,inactive: -0.016,active: -0.263,inactive: 0.067,inactive: -0.03,inactive: -0.102,,
CCDC57 (UniProt Q2TAC2),inactive: -0.026,inactive: 0.06,inactive: 0.065,inactive: 0.139,,,inactive: -0.035,inactive: -0.034,,
CCNH (UniProt P51946),inactive: -0.033,inactive: 0.033,inactive: 0.048,inactive: -0.031,inactive: 0.013,inactive: -0.01,inactive: -0.086,inactive: 0.098,,
CD151 (UniProt P48509),inactive: -0.151,inactive: 0.208,inactive: 0.07,inactive: -0.089,inactive: -0.19,inactive: -0.043,inactive: -0.056,inactive: 0.068,,
CASP10 isoform 4 (UniProt Q92851),inactive: 0.006,inactive: -0.102,inactive: 0.015,inactive: -0.137,inactive: -0.128,inactive: 0.201,inactive: 0.028,inactive: -0.075,,
CASP9 (UniProt P55211),inactive: 0.088,inactive: 0.002,inactive: 0.014,inactive: 0.014,inactive: -0.152,inactive: 0.064,inactive: 0.05,inactive: 0.037,,
CD53 (UniProt P19397),inactive: 0.101,inactive: 0.047,inactive: 0.005,inactive: -0.084,inactive: -0.016,inactive: -0.11,inactive: 0.103,inactive: 0.023,,
CDC37 (UniProt K7EKQ2),inactive: -0.182,,inactive: 0.07,,,,,,,
CCNC (UniProt P24863),inactive: 0.051,inactive: -0.004,inactive: 0.027,inactive: 0.247,inactive: -0.088,inactive: 0.018,active: 0.373,inactive: 0.059,,
CBLL1 (UniProt Q75N03),inactive: -0.026,inactive: -0.039,,inactive: 0.067,,inactive: 0.123,inactive: 0.005,inactive: 0.114,inactive: -0.184,inactive: -0.021
CBR1 (UniProt P16152),inactive: 0.006,inactive: 0.048,inactive: 0.052,inactive: -0.163,inactive: 0.034,inactive: -0.024,inactive: 0.003,inactive: 0.194,,
CASP8 isoform 9 (UniProt Q14790),inactive: 0.007,inactive: -0.02,inactive: -0.013,,inactive: -0.07,inactive: -0.007,inactive: 0.072,inactive: -0.151,,
CASP2 (UniProt P42575),inactive: 0.004,inactive: -0.062,inactive: 0.023,inactive: -0.002,inactive: -0.071,inactive: 0.05,inactive: 0.077,inactive: 0.039,,
CDC123 (UniProt O75794),inactive: -0.001,active: -0.246,inactive: 0.074,inactive: -0.032,inactive: 0.044,inactive: 0.115,inactive: 0.003,inactive: 0.013,,
CCNK isoform 4 (UniProt O75909),inactive: -0.014,inactive: -0.023,inactive: 0.073,inactive: -0.042,active: 0.324,inactive: 0.016,inactive: 0.157,inactive: 0.03,,
CAVIN1 (UniProt Q6NZI2),inactive: -0.023,inactive: -0.046,inactive: -0.34,inactive: 0.174,inactive: 0.145,inactive: 0.06,inactive: 0.135,inactive: 0.067,,
CD63 (UniProt P08962),inactive: 0.039,inactive: -0.076,inactive: 0.009,inactive: -0.013,inactive: -0.023,inactive: -0.022,inactive: 0.033,inactive: -0.092,,
CD55 isoform 7 (UniProt P08174),inactive: -0.023,inactive: 0.081,inactive: -0.096,inactive: -0.14,inactive: 0.052,inactive: -0.031,inactive: 0.02,inactive: 0.132,,
CCDC167 (UniProt Q9P0B6),inactive: -0.08,inactive: 0.025,inactive: 0.071,inactive: 0.135,inactive: 0.181,inactive: -0.214,inactive: 0.034,active: -0.344,,

# An excerpt from above with just log2 fold change [3], log2 fold change (doramapimod) and log2 fold change [1].
Target	log2 fold change [3]	log2 fold change (doramapimod)	log2 fold change [1]
CCDC9 (UniProt Q9Y3X0)	inactive: 0.105	inactive: -0.008	inactive: -0.046
CCNT1 (UniProt O60563)	inactive: 0.13	inactive: 0.181	inactive: -0.124
